Measurements: the supplement of paper PMC10849652
Some of the results follow.

By UniProt entry, the sequences of proteins in these tests, tags left out. Where a name states a change or a piece, a line headed by the entry shows the natural chain unless it says otherwise.
UniProt Q92620: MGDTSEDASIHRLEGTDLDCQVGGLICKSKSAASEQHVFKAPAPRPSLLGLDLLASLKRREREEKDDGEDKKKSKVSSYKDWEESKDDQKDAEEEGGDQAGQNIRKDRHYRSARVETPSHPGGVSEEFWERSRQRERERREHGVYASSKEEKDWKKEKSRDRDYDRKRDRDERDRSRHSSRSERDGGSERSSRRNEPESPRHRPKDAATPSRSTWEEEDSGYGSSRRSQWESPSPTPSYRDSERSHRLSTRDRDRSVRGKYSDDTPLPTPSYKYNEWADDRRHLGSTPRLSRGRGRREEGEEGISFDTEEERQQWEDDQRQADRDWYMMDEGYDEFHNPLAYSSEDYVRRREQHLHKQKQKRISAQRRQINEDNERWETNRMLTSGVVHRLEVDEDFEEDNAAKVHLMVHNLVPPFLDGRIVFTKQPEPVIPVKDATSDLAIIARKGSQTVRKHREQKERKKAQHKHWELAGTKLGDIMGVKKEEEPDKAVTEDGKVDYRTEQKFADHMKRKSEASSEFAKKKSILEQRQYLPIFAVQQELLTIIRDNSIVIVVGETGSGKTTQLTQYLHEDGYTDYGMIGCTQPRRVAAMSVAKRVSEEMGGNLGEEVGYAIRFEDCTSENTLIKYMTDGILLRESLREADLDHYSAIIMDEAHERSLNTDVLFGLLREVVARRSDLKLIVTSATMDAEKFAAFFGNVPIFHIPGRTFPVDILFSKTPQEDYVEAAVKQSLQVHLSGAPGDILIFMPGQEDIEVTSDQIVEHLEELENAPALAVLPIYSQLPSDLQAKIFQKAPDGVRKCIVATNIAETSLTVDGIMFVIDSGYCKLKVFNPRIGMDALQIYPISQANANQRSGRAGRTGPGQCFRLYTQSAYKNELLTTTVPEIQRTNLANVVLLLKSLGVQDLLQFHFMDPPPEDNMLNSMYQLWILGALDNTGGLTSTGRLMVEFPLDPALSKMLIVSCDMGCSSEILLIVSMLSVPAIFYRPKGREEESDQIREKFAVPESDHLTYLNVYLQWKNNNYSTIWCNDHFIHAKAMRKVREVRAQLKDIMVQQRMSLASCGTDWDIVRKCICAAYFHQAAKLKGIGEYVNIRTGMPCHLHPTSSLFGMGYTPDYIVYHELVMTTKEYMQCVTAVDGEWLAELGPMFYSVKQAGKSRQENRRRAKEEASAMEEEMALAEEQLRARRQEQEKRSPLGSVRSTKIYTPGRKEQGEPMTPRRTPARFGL
UniProt Q6ICB0: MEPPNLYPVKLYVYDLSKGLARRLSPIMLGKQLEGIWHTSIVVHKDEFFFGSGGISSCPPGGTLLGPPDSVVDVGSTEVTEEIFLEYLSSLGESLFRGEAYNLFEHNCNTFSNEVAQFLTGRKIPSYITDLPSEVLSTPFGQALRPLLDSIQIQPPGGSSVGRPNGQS
UniProt P36957: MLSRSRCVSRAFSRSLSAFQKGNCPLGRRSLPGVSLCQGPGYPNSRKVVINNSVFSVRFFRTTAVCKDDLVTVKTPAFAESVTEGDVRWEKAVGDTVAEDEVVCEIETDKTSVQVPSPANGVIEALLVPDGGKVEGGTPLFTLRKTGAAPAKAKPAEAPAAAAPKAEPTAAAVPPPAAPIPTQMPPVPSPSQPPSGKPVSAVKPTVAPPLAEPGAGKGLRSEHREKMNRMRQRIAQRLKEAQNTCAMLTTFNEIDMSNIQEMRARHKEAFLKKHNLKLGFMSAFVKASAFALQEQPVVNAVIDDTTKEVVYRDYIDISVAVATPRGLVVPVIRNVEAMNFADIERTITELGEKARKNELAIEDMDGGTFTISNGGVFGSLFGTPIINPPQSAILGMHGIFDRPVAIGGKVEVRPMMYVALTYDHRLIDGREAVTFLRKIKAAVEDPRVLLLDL
UniProt Q92841: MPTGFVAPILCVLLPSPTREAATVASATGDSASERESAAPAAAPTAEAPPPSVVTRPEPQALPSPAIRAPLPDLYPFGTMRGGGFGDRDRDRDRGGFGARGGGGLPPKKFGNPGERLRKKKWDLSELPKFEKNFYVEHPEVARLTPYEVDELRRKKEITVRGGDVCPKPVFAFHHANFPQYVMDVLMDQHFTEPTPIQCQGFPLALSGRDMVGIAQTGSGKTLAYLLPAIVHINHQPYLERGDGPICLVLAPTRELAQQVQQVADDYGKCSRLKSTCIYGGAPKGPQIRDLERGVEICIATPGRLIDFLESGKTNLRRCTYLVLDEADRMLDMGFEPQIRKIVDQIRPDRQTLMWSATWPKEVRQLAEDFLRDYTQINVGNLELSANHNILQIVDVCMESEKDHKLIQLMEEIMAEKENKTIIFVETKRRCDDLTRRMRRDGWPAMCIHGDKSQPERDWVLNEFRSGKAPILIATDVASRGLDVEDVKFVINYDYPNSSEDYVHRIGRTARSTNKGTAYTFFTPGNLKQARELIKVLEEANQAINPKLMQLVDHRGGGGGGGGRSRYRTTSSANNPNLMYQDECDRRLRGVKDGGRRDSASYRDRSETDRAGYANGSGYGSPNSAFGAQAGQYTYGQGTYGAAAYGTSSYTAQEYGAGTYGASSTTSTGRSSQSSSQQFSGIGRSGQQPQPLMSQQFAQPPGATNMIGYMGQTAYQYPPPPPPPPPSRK
UniProt Q7L014: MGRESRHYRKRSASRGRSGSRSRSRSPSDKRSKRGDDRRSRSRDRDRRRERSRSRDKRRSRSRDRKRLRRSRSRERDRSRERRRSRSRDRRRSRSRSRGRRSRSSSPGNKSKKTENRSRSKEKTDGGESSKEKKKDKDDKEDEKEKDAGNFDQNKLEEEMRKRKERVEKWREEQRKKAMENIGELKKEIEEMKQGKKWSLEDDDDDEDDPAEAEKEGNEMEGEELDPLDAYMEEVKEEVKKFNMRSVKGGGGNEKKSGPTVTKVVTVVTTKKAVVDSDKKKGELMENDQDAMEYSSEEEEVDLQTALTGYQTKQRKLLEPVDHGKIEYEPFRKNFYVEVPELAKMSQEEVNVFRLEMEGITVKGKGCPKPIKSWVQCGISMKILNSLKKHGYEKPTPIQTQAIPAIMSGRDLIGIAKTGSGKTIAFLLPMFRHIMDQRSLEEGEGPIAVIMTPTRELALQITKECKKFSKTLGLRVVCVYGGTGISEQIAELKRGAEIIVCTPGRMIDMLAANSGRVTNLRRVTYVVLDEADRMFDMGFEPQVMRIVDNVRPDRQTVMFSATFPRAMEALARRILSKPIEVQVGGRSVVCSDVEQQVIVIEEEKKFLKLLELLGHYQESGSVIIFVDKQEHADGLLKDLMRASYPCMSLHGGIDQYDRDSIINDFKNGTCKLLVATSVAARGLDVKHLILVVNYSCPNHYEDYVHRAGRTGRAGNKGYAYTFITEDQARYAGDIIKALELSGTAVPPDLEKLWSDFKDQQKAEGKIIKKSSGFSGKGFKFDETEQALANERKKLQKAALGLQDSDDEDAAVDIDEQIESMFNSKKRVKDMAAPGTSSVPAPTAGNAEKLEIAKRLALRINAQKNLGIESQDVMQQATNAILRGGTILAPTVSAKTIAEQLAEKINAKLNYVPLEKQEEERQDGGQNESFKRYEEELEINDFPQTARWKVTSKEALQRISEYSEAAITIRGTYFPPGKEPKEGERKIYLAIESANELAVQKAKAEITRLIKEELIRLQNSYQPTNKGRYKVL
UniProt P26196: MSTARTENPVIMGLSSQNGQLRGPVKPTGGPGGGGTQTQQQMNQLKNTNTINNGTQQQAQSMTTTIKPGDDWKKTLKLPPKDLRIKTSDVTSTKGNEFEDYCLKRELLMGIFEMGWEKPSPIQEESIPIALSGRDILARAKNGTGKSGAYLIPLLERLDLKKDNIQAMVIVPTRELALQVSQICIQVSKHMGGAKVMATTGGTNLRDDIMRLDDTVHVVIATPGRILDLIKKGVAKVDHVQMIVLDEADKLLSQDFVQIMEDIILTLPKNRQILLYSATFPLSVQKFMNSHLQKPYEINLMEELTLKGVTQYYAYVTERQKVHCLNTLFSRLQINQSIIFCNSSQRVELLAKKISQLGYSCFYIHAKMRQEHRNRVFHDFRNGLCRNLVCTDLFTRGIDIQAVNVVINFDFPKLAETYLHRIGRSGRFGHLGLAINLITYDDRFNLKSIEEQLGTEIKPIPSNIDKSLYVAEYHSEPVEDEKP
UniProt Q9NQI0, whole entry, looked up: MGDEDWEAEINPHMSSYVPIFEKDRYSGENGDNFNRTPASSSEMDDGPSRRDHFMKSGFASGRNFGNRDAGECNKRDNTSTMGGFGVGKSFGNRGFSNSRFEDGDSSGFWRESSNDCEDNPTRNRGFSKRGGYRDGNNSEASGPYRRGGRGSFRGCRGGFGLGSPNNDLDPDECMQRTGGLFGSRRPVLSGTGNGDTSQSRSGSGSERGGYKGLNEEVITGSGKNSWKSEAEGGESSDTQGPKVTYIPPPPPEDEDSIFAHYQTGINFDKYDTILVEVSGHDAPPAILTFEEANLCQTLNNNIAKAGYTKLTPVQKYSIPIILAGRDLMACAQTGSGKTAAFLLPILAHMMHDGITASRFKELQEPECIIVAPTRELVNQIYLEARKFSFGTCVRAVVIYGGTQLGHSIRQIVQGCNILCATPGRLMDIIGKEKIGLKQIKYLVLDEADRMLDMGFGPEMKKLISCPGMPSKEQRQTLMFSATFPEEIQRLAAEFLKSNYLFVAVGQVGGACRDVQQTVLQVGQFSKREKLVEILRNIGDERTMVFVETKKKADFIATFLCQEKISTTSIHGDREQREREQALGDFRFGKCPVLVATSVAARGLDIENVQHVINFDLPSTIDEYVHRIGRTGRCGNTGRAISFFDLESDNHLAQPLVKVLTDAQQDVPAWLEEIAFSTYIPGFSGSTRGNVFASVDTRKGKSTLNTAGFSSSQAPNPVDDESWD
UniProt P98153: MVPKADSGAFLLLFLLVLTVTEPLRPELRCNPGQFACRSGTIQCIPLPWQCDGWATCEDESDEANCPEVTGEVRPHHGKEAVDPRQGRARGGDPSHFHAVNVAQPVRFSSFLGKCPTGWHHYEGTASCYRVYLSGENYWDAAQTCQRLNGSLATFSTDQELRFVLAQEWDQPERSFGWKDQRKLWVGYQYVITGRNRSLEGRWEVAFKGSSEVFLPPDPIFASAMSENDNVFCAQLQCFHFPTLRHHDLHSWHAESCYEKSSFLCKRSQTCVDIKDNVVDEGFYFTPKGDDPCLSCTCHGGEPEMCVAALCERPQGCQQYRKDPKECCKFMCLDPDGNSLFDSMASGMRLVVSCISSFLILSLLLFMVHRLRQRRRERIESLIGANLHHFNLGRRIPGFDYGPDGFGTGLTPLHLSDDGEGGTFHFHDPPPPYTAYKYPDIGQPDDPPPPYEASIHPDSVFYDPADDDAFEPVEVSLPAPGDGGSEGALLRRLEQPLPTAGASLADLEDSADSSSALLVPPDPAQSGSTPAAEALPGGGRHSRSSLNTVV
UniProt Q7L2E3: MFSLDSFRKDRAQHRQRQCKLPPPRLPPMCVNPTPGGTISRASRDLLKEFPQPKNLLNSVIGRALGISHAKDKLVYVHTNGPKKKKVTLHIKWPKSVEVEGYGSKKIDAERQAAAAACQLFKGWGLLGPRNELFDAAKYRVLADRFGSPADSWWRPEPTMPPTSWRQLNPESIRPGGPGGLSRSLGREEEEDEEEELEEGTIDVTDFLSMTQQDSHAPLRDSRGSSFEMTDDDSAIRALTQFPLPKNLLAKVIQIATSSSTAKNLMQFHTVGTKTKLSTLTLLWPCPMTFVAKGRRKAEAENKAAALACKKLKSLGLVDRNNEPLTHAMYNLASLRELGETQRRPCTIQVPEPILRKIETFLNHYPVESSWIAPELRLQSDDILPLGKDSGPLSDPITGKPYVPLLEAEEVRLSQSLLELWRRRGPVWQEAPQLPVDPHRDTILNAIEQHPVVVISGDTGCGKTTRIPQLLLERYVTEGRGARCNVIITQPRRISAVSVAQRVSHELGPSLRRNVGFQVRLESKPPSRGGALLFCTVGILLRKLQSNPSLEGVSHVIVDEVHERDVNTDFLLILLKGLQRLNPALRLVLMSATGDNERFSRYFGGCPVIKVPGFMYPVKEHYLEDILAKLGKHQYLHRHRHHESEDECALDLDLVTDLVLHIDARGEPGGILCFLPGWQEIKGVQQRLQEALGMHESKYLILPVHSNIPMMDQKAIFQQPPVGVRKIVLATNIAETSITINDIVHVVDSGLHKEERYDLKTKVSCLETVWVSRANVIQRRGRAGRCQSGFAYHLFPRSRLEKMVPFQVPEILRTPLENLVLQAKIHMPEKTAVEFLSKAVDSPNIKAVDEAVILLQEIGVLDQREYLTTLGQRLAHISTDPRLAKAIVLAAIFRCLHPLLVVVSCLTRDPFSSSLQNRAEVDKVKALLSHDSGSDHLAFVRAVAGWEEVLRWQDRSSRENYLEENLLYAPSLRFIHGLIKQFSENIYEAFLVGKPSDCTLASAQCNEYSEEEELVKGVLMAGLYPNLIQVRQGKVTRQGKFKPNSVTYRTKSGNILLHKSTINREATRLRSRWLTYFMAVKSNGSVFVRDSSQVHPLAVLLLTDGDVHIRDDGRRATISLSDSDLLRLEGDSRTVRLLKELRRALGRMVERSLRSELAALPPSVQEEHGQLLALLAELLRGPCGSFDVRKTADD

How the values were obtained:
Test in all cases: log2 fold change, soluble protein after heating vs DMSO (PISA); higher = thermal stabilisation; K562 cells, 10 uM, 30 min; active = over 0.2 and 3.5 SD of the protein, either way, in both replicates (recomputed)
[1] = compound: C1=CC=C(C=C1)[C@H](COC2=CC3=C(C=C2)NC(=O)N3)NC(=O)C4=CC=CN(C4=O)CC5=CC(=C(C=C5)F)F
Summary of the method: (§1)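 Thermal stability values are relative to control samples and come from duplicates. They are expressed as log2 fold changes. For measurement, K562 cells (2×10^6 cells/mL) received 10 μM compound for 30 min, and aliquots were heated for 3 min over 48°C-58°C, pooled, and extracted at 4°C in PBS with 0.5% NP-40. Soluble protein, the supernatant after 21,000xg for 90 min, was quantified by TMTpro 16plex LC-MS/MS with equalised channel sums.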

[2] = compound: CC1=C(SC2=C1C(=N[C@H](C3=NN=C(N32)C)CC(=O)N)C4=CC=C(C=C4)Cl)C
Summary of the method: as §1

[3] = compound: CC1=C2C(=CC=C1)N=C(N(C2=O)C3=CC=CC=C3C)CN4C=NC5=C(N=CN=C54)N
Summary of the method: as §1

[4] = compound: Cc1sc2c(c1C)C(c1ccc(Cl)cc1)=N[C@@H](CC(=O)OC(C)(C)C)c1nnc(C)n1-2
Summary of the method: as §1

[5] = compound: c1ccc([C@@H]2C[C@H]2NC2CCNCC2)cc1
Summary of the method: as §1

Measured: log2 fold change

DIP2A (UniProt Q14689)
inactive: [1] -0.03 | [2] 0.042 | [3] -0.149 | [4] 0.019 | [5] -0.078

DHX38 (UniProt Q92620)
inactive: [1] 0.018 | [2] 0.021 | [3] 0.028 | [4] 0.035 | [5] -0.017

DESI1 (UniProt Q6ICB0)
inactive: [1] 0.094 | [2] 0.091 | [3] 0.021 | [4] -0.264 | [5] -0.06

DLST (UniProt P36957)
inactive: [1] 0.009 | [2] -0.067 | [3] -0.081 | [4] 0 | [5] 0.05

DHCR7 (UniProt Q9UBM7)
active: [5] 1.06
inactive: [1] -0.061 | [2] 0 | [3] 0.093 | [4] -0.186

DDX17 (UniProt Q92841)
inactive: [1] -0.024 | [2] -0.008 | [3] 0.054 | [4] 0.006 | [5] 0.006

DMXL2 isoform 3 (UniProt Q8TDJ6)
inactive: [1] 0.2 | [2] 0.072 | [3] 0.096 | [4] 0.143 | [5] 0.072

DDX46 (UniProt Q7L014)
inactive: [1] -0.059 | [2] 0.09 | [3] 0.184 | [4] -0.064 | [5] 0

DMD (UniProt P11532)
inactive: [1] -0.016 | [2] 0.023 | [3] 0.086 | [4] -0.023 | [5] 0.023

DHX15 (UniProt O43143)
inactive: [1] 0.007 | [2] 0.023 | [3] -0.013 | [4] -0.002 | [5] -0.024

DDX6 (UniProt P26196)
inactive: [1] -0.022 | [2] 0.009 | [3] 0.009 | [4] 0.038 | [5] -0.013

DHDDS isoform 2 (UniProt Q86SQ9)
inactive: [1] 0 | [2] 0.018 | [3] 0.077 | [4] 0.061 | [5] 0.011

DLGAP5 (UniProt Q15398)
inactive: [1] 0.015 | [2] -0.029 | [3] -0.013 | [4] 0.003 | [5] 0.016

DENR (UniProt O43583)
inactive: [1] -0.034 | [2] -0.01 | [3] 0.003 | [4] 0 | [5] 0.019

DDX4 (UniProt Q9NQI0)
inactive: [1] 0.052 | [2] -0.11 | [3] 0.213 | [4] 0.274 | [5] 0.001

DNAAF5 (UniProt Q86Y56)
inactive: [1] -0.051 | [2] -0.148 | [3] -0.195 | [4] 0.071 | [5] -0.019

Two entries drawn at random from the list so far:
DDX4 (UniProt Q9NQI0)
inactive: [1] 0.052 | [2] -0.11 | [3] 0.213 | [4] 0.274 | [5] 0.001

DHDDS isoform 2 (UniProt Q86SQ9)
inactive: [1] 0 | [2] 0.018 | [3] 0.077 | [4] 0.061 | [5] 0.011

Continuation.

DHX9 (UniProt Q08211)
inactive: [1] 0.047 | [2] -0.135 | [3] -0.154 | [4] 0.14 | [5] 0.027

DHX8 (UniProt Q14562)
inactive: [1] -0.032 | [2] 0.044 | [3] 0.09 | [4] 0.028 | [5] 0.037

DHX29 (UniProt Q7Z478)
inactive: [1] -0.012 | [2] -0.065 | [3] -0.048 | [4] 0.144 | [5] 0.037

DGCR2 (UniProt P98153)
inactive: [1] 0.074 | [2] -0.048 | [3] -0.03 | [4] -0.005 | [5] -0.059

DHX30 isoform 2 (UniProt Q7L2E3)
inactive: [1] 0.022 | [2] -0.238 | [3] -0.148 | [4] 0.125 | [5] 0.065

DEK (UniProt P35659)
inactive: [1] -0.025 | [2] 0.021 | [3] 0.067 | [4] -0.06 | [5] -0.008

DIS3 (UniProt Q9Y2L1)
inactive: [1] -0.098 | [2] 0.1 | [3] 0.118 | [4] -0.011 | [5] -0.046

DDA1 (UniProt Q9BW61)
inactive: [1] 0.018 | [2] -0.009 | [3] 0.074 | [4] -0.026 | [5] 0.054

DNAH10 (UniProt Q8IVF4)
inactive: [1] 0.09 | [2] 0.103 | [3] 0.062 | [4] -0.131 | [5] 0.031
